These are yes or no findings as the source states them, for the method shown. Binding seen in cells or lysates may run through a third protein. Some entries that bind do so weakly or less than the wild type.
Molecular target: Yin Yang-1 (YY1) (human (endogenous in HMC3)) (UniProt P25490)
Test: co-IP; HMC3 cell lysates incubated with antibodies for 12 h at 4 °C, then protein A/G beads for 2 h (Abcam ab206996 kit); Western blot; cells under normoxia or hypoxia

Sequences of proteins named here, by UniProt entry; tags and fusion partners are left off.
UniProt P25490: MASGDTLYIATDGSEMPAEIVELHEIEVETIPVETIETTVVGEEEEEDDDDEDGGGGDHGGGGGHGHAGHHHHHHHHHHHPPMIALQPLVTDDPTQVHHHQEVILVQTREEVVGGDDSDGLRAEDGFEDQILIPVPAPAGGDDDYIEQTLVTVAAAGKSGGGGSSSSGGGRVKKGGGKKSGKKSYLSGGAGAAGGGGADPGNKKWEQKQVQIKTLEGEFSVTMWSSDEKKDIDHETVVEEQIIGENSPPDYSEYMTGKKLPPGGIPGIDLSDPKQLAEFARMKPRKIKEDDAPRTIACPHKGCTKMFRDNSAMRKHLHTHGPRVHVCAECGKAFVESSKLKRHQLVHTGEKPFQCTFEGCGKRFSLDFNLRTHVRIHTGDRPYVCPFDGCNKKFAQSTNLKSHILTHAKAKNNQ
UniProt Q09472: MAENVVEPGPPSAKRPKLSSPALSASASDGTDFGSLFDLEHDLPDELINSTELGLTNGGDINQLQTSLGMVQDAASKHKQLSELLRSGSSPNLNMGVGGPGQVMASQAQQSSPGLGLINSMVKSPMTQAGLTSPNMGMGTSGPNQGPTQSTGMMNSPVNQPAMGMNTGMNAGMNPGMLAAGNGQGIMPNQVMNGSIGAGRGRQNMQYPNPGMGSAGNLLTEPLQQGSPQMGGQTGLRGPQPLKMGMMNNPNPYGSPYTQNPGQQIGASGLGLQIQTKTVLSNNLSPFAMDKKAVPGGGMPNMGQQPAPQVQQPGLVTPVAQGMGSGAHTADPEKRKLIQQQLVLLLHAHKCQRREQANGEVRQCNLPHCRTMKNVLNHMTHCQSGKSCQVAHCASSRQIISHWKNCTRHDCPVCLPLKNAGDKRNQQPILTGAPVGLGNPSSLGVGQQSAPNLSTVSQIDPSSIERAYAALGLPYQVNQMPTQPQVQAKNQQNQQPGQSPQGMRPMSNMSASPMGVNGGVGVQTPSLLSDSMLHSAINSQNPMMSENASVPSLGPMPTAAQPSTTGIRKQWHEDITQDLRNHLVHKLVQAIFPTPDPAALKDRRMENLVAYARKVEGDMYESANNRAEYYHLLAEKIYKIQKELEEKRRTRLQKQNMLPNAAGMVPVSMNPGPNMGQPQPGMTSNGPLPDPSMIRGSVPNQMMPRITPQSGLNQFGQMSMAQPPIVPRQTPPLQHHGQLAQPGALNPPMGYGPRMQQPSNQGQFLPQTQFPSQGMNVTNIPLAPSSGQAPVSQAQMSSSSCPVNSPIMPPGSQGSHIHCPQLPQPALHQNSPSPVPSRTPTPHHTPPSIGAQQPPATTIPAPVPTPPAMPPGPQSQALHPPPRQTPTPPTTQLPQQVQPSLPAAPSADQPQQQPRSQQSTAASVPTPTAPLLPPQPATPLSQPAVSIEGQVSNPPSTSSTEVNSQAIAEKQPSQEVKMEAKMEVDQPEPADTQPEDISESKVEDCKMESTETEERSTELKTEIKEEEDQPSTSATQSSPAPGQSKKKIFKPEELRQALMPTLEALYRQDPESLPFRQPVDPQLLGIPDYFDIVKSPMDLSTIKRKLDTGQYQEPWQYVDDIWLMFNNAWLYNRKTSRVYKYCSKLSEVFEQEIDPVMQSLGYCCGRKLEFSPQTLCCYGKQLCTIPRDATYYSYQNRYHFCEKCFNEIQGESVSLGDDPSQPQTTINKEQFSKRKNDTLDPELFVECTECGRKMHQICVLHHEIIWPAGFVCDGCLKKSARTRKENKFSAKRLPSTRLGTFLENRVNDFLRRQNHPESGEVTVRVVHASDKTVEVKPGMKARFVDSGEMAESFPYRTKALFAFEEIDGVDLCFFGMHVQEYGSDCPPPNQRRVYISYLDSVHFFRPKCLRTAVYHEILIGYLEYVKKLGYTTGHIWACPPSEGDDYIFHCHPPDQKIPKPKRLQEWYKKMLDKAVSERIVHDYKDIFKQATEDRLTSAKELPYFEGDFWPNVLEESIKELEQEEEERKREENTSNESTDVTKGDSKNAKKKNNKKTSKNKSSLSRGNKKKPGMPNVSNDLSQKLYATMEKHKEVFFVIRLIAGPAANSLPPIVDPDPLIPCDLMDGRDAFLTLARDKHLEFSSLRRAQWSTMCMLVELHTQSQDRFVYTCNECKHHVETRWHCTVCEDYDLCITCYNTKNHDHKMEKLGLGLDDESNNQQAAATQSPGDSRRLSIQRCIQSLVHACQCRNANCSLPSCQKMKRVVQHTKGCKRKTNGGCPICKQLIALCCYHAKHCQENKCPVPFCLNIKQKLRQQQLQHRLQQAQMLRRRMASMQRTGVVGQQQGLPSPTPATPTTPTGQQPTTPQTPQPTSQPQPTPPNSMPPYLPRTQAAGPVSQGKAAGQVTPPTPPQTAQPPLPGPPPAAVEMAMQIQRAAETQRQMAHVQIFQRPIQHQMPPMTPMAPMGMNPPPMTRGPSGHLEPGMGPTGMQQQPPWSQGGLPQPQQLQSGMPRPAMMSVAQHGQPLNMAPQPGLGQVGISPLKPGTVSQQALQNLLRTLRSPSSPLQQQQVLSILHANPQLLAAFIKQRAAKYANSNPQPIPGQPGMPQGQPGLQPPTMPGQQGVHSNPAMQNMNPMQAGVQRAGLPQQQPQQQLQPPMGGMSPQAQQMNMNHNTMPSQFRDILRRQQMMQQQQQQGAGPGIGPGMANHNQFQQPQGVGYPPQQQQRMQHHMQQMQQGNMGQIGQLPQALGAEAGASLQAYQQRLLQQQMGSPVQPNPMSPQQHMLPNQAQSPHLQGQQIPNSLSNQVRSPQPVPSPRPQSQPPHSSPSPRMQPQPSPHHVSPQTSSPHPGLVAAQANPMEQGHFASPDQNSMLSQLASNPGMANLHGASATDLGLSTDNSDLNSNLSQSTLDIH

For “p300 (from UniProt Q09472 1-2414) (enzyme)”, which binding is on record?
Its binding is “binds”.

From publication PMC10120156
